Experimental data as given in article PMC7450955.
Results are given in words; binding and its absence hold for the method and conditions named. Binding seen in cells or lysates may run through a third protein. For some of these results: Binding can be weak; no strength is given.

Key:
Test in all cases: co-IP; NLRP12 and FLAG-tagged APOL1 constructs cotransfected into HeLa cells; APOL1 immunoprecipitated with anti-FLAG antibodies; western analysis for NLRP12
APOL1-B1-FLAG (human) = target: APOL1-B1-FLAG (human)
APOL1-C-FLAG (human) = target: APOL1-C-FLAG (human)
APOL1-B3-G2-FLAG (human) = target: APOL1-B3-G2-FLAG (human)
[1] = target: APOL1-B3-G0 C-del (C-terminal SRA binding domain deleted) (human)
[2] = target: APOL1-B3-G0 M-del (membrane-addressing domain deleted) (human)
APOL1-B3-G1-FLAG (human) = target: APOL1-B3-G1-FLAG (human)
[3] = target: APOL1-B3-FLAG (wild type, G0) (human)

B1: NLRP12 (transfected) (protein, UniProt P59046 1-1061)
chain: MLRTAGRDGLCRLSTYLEELEAVELKKFKLYLGTATELGEGKIPWGSMEKAGPLEMAQLLITHFGPEEAWRLALSTFERINRKDLWERGQREDLVRDTPPGGPSSLGNQSTCLLEVSLVTPRKDPQETYRDYVRRKFRLMEDRNARLGECVNLSHRYTRLLLVKEHSNPMQVQQQLLDTGRGHARTVGHQASPIKIETLFEPDEERPEPPRTVVMQGAAGIGKSMLAHKVMLDWADGKLFQGRFDYLFYINCREMNQSATECSMQDLIFSCWPEPSAPLQELIRVPERLLFIIDGFDELKPSFHDPQGPWCLCWEEKRPTELLLNSLIRKKLLPELSLLITTRPTALEKLHRLLEHPRHVEILGFSEAERKEYFYKYFHNAEQAGQVFNYVRDNEPLFTMCFVPLVCWVVCTCLQQQLEGGGLLRQTSRTTTAVYMLYLLSLMQPKPGAPRLQPPPNQRGLCSLAADGLWNQKILFEEQDLRKHGLDGEDVSAFLNMNIFQKDINCERYYSFIHLSFQEFFAAMYYILDEGEGGAGPDQDVTRLLTEYAFSERSFLALTSRFLFGLLNEETRSHLEKSLCWKVSPHIKMDLLQWIQSKAQSDGSTLQQGSLEFFSCLYEIQEEEFIQQALSHFQVIVVSNIASKMEHMVSSFCLKRCRSAQVLHLYGATYSADGEDRARCSAGAHTLLVQLPERTVLLDAYSEHLAAALCTNPNLIELSLYRNALGSRGVKLLCQGLRHPNCKLQNLRLKRCRISSSACEDLSAALIANKNLTRMDLSGNGVGFPGMMLLCEGLRHPQCRLQMIQLRKCQLESGACQEMASVLGTNPHLVELDLTGNALEDLGLRLLCQGLRHPVCRLRTLWLKICRLTAAACDELASTLSVNQSLRELDLSLNELGDLGVLLLCEGLRHPTCKLQTLRLGICRLGSAACEGLSVVLQANHNLRELDLSFNDLGDWGLWLLAEGLQHPACRLQKLWLDSCGLTAKACENLYFTLGINQTLTDLYLTNNALGDTGVRLLCKRLSHPGCKLRVLWLFGMDLNKMTHSRLAALRVTKPYLDIGC
B1 was tested. Which binding (APOL1-B1-FLAG (human)) did it give?
The binding was “no binding”.

And the binding (APOL1-C-FLAG (human))?
The binding was “binds”.

And the binding (APOL1-B3-G2-FLAG (human))?
The binding was “binds”.

What about the binding [1] of the same binder?
Its binding is “binds”.

And the binding [2]?
The binding was “binds”.

What about the binding (APOL1-B3-G1-FLAG (human)) of the same binder?
Its binding is “binds”.

What about the binding [3] of the same binder?
The binding was “binds”.
